Assay: general procedure: Fmoc solid-phase peptide synthesis; Sieber amide resin; HATU/DIEA
Details: whole synthesis, UV 225 nm, scale of the general procedure 5 mg to 2 g resin for each peptide

MeA-MeF-S-Cha-Y-S-Y-Y-R-R-Cha-C
final purity (method not given): 91.67%

From patent publication US20240209027A1 (PeptiAID Inc.,, priority 2021, published 2024)
